# Assay results published in the supplement of paper PMC10849652.
# Amino acid sequences for entries named in this document (tags omitted). A change or cut given only in a name is not applied to a line headed by its entry.
# UniProt P46934: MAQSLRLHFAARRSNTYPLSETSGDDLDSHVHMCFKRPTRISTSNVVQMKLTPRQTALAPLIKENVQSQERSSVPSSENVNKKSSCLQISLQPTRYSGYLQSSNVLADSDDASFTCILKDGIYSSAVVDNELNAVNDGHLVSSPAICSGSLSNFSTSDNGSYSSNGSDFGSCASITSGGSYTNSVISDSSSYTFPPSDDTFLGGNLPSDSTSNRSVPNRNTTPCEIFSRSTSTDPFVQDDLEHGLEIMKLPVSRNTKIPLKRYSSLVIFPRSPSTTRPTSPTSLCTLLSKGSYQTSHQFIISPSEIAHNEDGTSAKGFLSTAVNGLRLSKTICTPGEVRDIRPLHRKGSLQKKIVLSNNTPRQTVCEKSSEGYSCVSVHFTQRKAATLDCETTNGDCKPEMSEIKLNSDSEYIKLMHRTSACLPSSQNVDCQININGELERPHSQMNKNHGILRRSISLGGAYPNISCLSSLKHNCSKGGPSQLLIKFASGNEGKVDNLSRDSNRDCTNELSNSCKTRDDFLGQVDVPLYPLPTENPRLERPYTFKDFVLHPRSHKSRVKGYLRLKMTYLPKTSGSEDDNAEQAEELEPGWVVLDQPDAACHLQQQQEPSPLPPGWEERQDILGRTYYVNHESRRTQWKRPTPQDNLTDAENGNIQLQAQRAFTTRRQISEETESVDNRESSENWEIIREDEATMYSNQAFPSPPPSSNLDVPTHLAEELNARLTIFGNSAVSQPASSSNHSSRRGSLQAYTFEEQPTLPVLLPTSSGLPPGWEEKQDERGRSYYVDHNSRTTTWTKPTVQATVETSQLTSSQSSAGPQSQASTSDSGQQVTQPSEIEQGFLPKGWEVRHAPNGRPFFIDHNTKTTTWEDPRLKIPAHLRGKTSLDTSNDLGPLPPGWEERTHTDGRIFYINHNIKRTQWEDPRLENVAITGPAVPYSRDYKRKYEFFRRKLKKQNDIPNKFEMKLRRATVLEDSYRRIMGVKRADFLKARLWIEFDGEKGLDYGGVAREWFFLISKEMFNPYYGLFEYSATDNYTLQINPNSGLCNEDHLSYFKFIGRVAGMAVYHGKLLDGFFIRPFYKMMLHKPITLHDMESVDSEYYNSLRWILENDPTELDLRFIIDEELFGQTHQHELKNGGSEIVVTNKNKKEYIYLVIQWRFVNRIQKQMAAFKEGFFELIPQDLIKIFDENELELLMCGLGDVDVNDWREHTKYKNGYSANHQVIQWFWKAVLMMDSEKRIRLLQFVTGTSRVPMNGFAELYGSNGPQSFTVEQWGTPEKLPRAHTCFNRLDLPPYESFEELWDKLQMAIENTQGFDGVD
# UniProt A2RRP1: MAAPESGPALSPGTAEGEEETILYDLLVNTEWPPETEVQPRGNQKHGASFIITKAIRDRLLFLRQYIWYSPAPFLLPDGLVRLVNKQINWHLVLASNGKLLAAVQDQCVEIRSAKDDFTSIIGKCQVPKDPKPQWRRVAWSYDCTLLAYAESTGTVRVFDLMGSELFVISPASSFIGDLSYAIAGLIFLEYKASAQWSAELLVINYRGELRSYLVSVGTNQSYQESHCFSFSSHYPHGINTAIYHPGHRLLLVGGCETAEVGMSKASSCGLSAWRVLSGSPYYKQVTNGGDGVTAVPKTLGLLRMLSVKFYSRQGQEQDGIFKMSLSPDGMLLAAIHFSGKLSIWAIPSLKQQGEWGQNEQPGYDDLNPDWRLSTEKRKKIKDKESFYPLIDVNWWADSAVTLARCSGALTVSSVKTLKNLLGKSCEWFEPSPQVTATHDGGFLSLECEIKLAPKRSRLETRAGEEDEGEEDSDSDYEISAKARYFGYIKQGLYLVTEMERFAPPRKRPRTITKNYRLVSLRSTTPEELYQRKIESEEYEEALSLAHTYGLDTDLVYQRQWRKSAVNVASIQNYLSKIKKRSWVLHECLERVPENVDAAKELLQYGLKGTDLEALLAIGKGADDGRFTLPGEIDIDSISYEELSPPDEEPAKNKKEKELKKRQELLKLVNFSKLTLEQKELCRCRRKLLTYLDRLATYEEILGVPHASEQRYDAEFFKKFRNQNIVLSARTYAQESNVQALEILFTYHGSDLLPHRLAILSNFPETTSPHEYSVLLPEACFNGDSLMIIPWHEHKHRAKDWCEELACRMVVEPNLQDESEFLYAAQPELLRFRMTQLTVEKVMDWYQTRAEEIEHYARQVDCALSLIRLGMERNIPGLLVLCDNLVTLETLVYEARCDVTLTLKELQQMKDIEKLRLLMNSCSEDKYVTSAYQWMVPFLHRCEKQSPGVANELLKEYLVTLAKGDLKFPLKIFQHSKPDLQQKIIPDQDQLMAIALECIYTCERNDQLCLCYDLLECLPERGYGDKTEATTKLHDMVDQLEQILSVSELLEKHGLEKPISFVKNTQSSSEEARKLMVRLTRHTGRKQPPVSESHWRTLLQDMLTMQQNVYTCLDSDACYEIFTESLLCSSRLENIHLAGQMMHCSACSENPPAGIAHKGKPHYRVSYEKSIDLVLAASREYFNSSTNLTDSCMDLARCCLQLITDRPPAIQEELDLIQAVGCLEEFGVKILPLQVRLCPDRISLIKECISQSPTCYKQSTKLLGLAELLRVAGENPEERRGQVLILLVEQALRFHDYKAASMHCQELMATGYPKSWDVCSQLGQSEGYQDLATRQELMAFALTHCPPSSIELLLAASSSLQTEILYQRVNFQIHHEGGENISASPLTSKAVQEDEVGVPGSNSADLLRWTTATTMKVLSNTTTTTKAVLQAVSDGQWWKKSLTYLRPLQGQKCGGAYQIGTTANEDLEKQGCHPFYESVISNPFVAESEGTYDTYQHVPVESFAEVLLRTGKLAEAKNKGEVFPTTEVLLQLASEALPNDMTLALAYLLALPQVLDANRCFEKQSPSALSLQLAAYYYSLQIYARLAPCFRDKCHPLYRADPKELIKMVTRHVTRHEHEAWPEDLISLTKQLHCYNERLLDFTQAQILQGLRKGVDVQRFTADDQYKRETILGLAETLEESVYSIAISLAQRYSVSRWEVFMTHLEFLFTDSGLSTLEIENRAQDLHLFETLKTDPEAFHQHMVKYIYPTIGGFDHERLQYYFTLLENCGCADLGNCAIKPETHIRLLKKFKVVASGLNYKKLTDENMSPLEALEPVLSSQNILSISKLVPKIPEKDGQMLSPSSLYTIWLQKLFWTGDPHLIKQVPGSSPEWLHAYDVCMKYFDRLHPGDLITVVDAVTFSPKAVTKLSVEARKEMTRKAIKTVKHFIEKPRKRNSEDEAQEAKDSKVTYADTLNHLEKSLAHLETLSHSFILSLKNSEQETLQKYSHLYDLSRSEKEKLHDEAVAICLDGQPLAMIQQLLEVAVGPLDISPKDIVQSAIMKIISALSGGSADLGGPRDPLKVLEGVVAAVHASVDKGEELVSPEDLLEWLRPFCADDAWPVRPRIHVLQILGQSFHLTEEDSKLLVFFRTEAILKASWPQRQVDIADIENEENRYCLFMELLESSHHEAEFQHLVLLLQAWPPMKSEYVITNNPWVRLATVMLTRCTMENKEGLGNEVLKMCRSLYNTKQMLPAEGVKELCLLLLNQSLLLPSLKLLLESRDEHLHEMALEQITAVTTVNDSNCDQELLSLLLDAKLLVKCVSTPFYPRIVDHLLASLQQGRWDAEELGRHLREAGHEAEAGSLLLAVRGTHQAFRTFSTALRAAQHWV
# UniProt Q6P582, whole entry, looked up: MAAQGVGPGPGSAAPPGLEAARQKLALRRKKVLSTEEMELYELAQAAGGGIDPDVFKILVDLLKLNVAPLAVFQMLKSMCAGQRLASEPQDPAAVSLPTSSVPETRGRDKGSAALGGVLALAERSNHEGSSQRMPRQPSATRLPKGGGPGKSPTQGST
# UniProt Q9UGV2: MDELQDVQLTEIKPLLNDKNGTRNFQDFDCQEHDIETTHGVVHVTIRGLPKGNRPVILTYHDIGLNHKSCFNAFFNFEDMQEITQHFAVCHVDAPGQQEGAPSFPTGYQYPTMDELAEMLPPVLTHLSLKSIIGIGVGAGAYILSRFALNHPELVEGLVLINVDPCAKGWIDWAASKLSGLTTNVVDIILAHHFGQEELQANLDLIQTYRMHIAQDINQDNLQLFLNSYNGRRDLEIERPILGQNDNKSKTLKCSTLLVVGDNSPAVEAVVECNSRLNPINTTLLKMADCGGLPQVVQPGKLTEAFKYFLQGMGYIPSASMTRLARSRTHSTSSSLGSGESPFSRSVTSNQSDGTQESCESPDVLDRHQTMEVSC
# UniProt Q16795, whole entry, looked up: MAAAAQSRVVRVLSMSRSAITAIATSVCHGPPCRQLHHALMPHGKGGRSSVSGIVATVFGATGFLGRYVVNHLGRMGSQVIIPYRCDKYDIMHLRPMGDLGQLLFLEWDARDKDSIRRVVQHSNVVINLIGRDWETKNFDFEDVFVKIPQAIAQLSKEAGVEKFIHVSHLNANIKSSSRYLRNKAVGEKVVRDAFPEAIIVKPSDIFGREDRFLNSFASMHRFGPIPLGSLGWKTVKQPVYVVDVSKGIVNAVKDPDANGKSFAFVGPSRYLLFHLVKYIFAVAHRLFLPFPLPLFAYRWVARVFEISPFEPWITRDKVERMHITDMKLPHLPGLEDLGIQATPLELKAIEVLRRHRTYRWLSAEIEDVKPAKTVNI
# UniProt P17568, whole entry, looked up: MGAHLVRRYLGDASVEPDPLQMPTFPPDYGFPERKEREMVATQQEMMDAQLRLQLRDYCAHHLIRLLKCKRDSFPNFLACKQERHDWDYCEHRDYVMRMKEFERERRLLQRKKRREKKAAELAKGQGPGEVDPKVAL
# UniProt O95167, whole entry, looked up: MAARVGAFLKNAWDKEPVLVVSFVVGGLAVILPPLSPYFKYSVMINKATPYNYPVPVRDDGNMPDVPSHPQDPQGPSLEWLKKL
# UniProt Q9Y375: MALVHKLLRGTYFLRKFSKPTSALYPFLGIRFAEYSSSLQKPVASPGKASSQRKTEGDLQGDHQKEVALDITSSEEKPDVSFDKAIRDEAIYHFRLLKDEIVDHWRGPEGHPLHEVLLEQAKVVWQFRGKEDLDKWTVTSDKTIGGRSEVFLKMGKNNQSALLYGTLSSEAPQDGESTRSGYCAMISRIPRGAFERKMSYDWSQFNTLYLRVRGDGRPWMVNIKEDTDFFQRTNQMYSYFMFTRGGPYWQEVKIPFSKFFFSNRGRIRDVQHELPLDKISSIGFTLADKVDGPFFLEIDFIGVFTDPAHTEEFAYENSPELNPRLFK
# The other results are listed elsewhere or left out.
# What was measured:
# Experiment in all cases: log2 fold change, soluble protein after heating vs DMSO (PISA); higher = thermal stabilisation; K562 cells, 10 uM, 30 min; active = over 0.2 and 3.5 SD of the protein, either way, in both replicates (recomputed)
# [1] = compound: Cc1ccc(NC(=O)c2ccc(CN3CC[C@H](N(C)C)C3)c(C(F)(F)F)c2)cc1Nc1nccc(-c2cncnc2)n1 [bafetinib]
# Summary of the method: (§1)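 K562 cells at 2×10^6 cells/mL were treated with 10 μM compound for 30 min. Aliquots were heated for 3 min across 48°C-58°C, pooled, and extracted in PBS with 0.5% NP-40 at 4°C; soluble protein was the supernatant after 21,000xg for 90 min. Soluble protein was quantified by TMTpro 16plex LC-MS/MS with channel sums equalised, and reported as log2 fold change in thermal stability against DMSO controls, with values from duplicates.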
# [2] = compound: Cc1cccc(CC(=O)N2CCc3c2ccc(-c2cn(C)c4ncnc(N)c24)c3F)n1
# Summary of the method: as §1
# [3] = compound: Cc1cn(-c2cc(NC(=O)c3ccc(C)c(Nc4nccc(-c5cccnc5)n4)c3)cc(C(F)(F)F)c2)cn1 [nilotinib]
# Summary of the method: as §1
# [4] = compound: Cc1nc(Nc2n[nH]c3c2CN(C(=O)N[C@H](CN(C)C)c2ccccc2)C3(C)C)c2sccc2n1
# Summary of the method: as §1
# [5] = compound: Cc1nc(Nc2ncc(C(=O)Nc3c(C)cccc3Cl)s2)cc(N2CCN(CCO)CC2)n1 [dasatinib]
# Summary of the method: as §1
# [6] = compound: Cc1ncc(-c2ccnc(Nc3ccc(S(C)(=O)=O)cc3)n2)n1C(C)C
# Summary of the method: as §1
# [7] = compound: Cn1cc(-c2ccc3c(c2)CCN3C(=O)Cc2cccc(C(F)(F)F)c2)c2c(N)ncnc21
# Summary of the method: as §1
# [8] = compound: Cn1cc(-c2ccc3nnc(C(F)(F)c4ccc5ncccc5c4)n3n2)cn1
# Summary of the method: as §1
# [9] = compound: Cn1cncc1[C@@](N)(c1ccc(Cl)cc1)c1ccc2c(c1)c(-c1cccc(Cl)c1)cc(=O)n2C [tipifarnib]
# Summary of the method: as §1
# [10] = compound: FC(F)(F)c1ccc(/C=C/c2nc(COc3ccc(CCCCn4ccnn4)cc3)co2)cc1 [mubritinib]
# Summary of the method: as §1
# [11] = compound: NC(=O)Nc1cc(-c2cccc(F)c2)sc1C(=O)N[C@H]1CCCNC1
# Summary of the method: as §1
# [12] = compound: NC(=O)c1cnc(N[C@@H]2CCCC[C@@H]2N)nc1Nc1cccc(-n2nccn2)c1
# Summary of the method: as §1
# [13] = compound: NC1(c2ccc(-c3nc4ccn5c(=O)[nH]nc5c4cc3-c3ccccc3)cc2)CCC1
# Summary of the method: as §1
# [14] = compound: NCC(=O)Nc1ccc(-n2nc(C(F)(F)F)cc2-c2ccc3c(ccc4ccccc43)c2)cc1
# Summary of the method: as §1
# [15] = compound: Nc1ccccc1NC(=O)c1ccc(CNC(=O)OCc2cccnc2)cc1 [entinostat]
# Summary of the method: as §1
# [16] = compound: O=C(CCCCCCC(=O)Nc1ccccc1)NO [vorinostat]
# Summary of the method: as §1
# [17] = compound: O=C(CCCCCCNC(=O)c1cnc(N(c2ccccc2)c2ccccc2Cl)nc1)NO [citarinostat]
# Summary of the method: as §1
# [18] = compound: O=C(O)c1ccc2c(c1)nc(Nc1cccc(Cl)c1)c1ccncc12 [silmitasertib]
# Summary of the method: as §1
# [19] = compound: O=C1NC(=O)C(c2cnc3ccccn23)=C1c1cn2c3c(cc(F)cc13)CN(C(=O)N1CCCCC1)CC2
# Summary of the method: as §1
# [20] = compound: c1cc(OCCN2CCCCC2)cc(-c2n[nH]c3ccc(-c4nnc[nH]4)cc23)c1
# Summary of the method: as §1
Target,log2 fold change [1],log2 fold change [2],log2 fold change [3],log2 fold change [4],log2 fold change [5],log2 fold change [6],log2 fold change [7],log2 fold change [8],log2 fold change [9],log2 fold change [10],log2 fold change [11],log2 fold change [12],log2 fold change [13],log2 fold change [14],log2 fold change [15],log2 fold change [16],log2 fold change [17],log2 fold change [18],log2 fold change [19],log2 fold change [20]
NEDD4 isoform 4 (UniProt P46934),inactive: -0.067,inactive: 0.054,inactive: -0.047,inactive: -0.083,inactive: -0.068,inactive: 0.052,inactive: -0.016,inactive: 0.027,inactive: -0.024,inactive: 0.008,inactive: -0.043,inactive: -0.027,inactive: -0.187,inactive: -0.074,inactive: 0.029,inactive: -0.04,inactive: 0.084,inactive: 0.064,inactive: -0.008,inactive: 0.013
NBAS (UniProt A2RRP1),inactive: 0.247,inactive: 0.04,inactive: -0.184,inactive: -0.166,inactive: 0.004,inactive: 0.089,inactive: -0.131,inactive: 0.026,inactive: 0.032,inactive: -0.059,inactive: 0.034,inactive: 0,inactive: -0.006,inactive: -0.028,inactive: 0.107,inactive: 0.082,inactive: 0.057,inactive: 0.079,inactive: 0.152,inactive: -0.16
MZT2A (UniProt Q6P582),inactive: -0.006,inactive: 0.358,inactive: 0.034,inactive: -0.021,inactive: -0.083,inactive: -0.099,inactive: 0.061,inactive: 0.005,inactive: 0.017,inactive: -0.007,inactive: 0.053,inactive: 0.044,inactive: 0.025,inactive: -0.172,inactive: 0.048,inactive: -0.256,inactive: -0.01,inactive: 0.007,inactive: -0.089,inactive: -0.118
NDRG3 (UniProt Q9UGV2),inactive: 0.028,inactive: 0.004,inactive: 0.009,inactive: -0.005,inactive: -0.038,inactive: 0.016,inactive: 0.015,inactive: 0.014,inactive: -0.025,inactive: 0.039,inactive: 0.04,inactive: -0.11,inactive: -0.049,inactive: -0.047,inactive: 0.039,inactive: 0.002,inactive: 0.017,inactive: -0.02,inactive: -0.038,inactive: -0.037
NDUFA9 (UniProt Q16795),inactive: -0.019,inactive: 0.033,inactive: -0.056,inactive: 0.005,inactive: -0.127,inactive: 0.012,inactive: 0.002,inactive: -0.007,inactive: -0.033,active: 0.223,inactive: -0.025,inactive: -0.089,inactive: -0.112,inactive: -0.091,inactive: 0.039,inactive: 0.065,inactive: 0.037,inactive: -0.016,inactive: -0.104,inactive: 0.017
NDUFB7 (UniProt P17568),inactive: 0,inactive: 0.164,inactive: -0.029,inactive: 0.057,inactive: 0.022,inactive: -0.053,inactive: 0.043,inactive: 0.01,inactive: -0.029,inactive: -0.007,inactive: 0.039,inactive: -0.015,inactive: -0.02,inactive: 0.055,inactive: -0.013,inactive: -0.037,inactive: 0.029,inactive: 0,inactive: -0.094,inactive: 0.009
NDUFA3 (UniProt O95167),inactive: -0.163,inactive: -0.068,inactive: -0.043,inactive: -0.001,inactive: -0.055,inactive: -0.095,inactive: 0.117,inactive: 0.174,inactive: 0.124,inactive: 0.12,inactive: 0.032,inactive: -0.009,inactive: -0.113,inactive: -0.015,inactive: 0.084,inactive: -0.096,inactive: 0.031,inactive: -0.067,inactive: -0.093,inactive: -0.025
NDUFAF1 (UniProt Q9Y375),inactive: -0.078,inactive: 0.008,inactive: -0.022,inactive: 0.006,inactive: -0.029,inactive: -0.034,inactive: 0.013,inactive: 0.019,inactive: 0.039,inactive: -0.012,inactive: 0.02,inactive: 0.003,inactive: -0.032,inactive: -0.074,inactive: -0.03,inactive: 0,inactive: 0.09,inactive: 0,inactive: 0.019,inactive: -0.06

# Only log2 fold change [10], log2 fold change [13] and log2 fold change [20], for some of the entries so far:
Target	log2 fold change [10]	log2 fold change [13]	log2 fold change [20]
MZT2A (UniProt Q6P582)	inactive: -0.007	inactive: 0.025	inactive: -0.118
NDRG3 (UniProt Q9UGV2)	inactive: 0.039	inactive: -0.049	inactive: -0.037
